In brackets after ≈: the same amount, converted by molar mass.
What was measured:
Experiment in all cases: MIC screening, vancomycin vs vancomycin/peptide conjugates
Format in all cases: cell-based
[1] = test system: P. aeruginosa QC (MMX 103, ATCC 27853); settings: Pseudomonas aeruginosa, ATCC27853
Source text: (§1) Vancomycin was conjugated to a variety of antibacterial peptides and screened against (a) resistant strains of gram-positive bacteria and b) gram-negative bacteria. See FIG. 20, FIG. 21, FIG. 22, and Table 3.

[2] = test system: E. coli QC (MMX 102, ATCC 25922); settings: Escherichia coli, ATCC25922
Source text: as §1

[3] = test system: S. aureus MSSA: QC (MMX 100, ATCC 29213); settings: Staphylococcus aureus
Source text: as §1

[4] = test system: S. aureus MRSA (MMX 7778); settings: Staphylococcus aureus
Source text: as §1

Q: Which MIC [1] does the source give for CN[C@H](CC(C)C)C(=O)N[C@H]1C(=O)N[C@@H](CC(N)=O)C(=O)N[C@H]2C(=O)N[C@H]3C(=O)N[C@H](C(=O)N[C@H](C(=O)O)c4cc(O)cc(O)c4-c4cc3ccc4O)[C@H](O)c3ccc(c(Cl)c3)Oc3cc2cc(c3O[C@@H]2O[C@H](CO)[C@@H](O)[C@H](O)[C@H]2O[C@H]2C[C@](C)(N)[C@H](O)[C@H](C)O2)Oc2ccc(cc2Cl)[C@H]1O [vancomycin] here?
A: > 64 µg/mL

Q: And the MIC [2]?
A: > 64 µg/mL

Q: What about the MIC [3] of the same compound?
A: 1 µg/mL (≈ 0.69 µM)

Q: And the MIC [4]?
A: 1 µg/mL (≈ 0.69 µM)
